Measurements reported in PubChem BioAssay AID743121 (NCATS, 2013)
In all, the deposit lists about 26,000 reagents; shown is a part drawn at random. Over the whole deposit, 167 (0.63%) were called active. 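Calls are per gene from RSA p-values that are not deposited; an individual active-marked siRNA can sensitise only weakly.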 The numbers tell different reagents against one gene apart. Not all columns of the deposit are shown.

Assay: 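Genes whose silencing strengthens cell killing by camptothecin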 (primary screen)
Cell system: MDA-MB-231 cells, a human breast cancer line
Knock-down reagent: single siRNA against human genes, 20 nM siRNA (0.8 pmol per well)
Timing: 120 h (drug added 48 h after transfection, read 72 h later)
Treatment: camptothecin 20 nM (about EC30) for 72 h; vehicle 0.1% DMSO in parallel plates
Measured: 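CellTiter-Glo ATP signal, scaled to control siRNA as percent viability; sensitisation given as log2 of untreated divided by camptothecin-treated viability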
Reading the numbers: log2 vehicle/camptothecin viability: higher = stronger sensitisation to camptothecin; viability with camptothecin: higher = more viable cells
Call rule: 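Active genes have an RSA gene-level p-value below 0.001, computed from the ratios of their separate siRNAs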

gene symbol,reagent no.,log2 vehicle/camptothecin viability,viability with camptothecin (% of control),call
ULK1 (unc-51 like autophagy activating kinase 1),1,-1.09,81.9,inactive
ULK1 (unc-51 like autophagy activating kinase 1),2,-0.399,92.1,inactive
ULK1 (unc-51 like autophagy activating kinase 1),3,-0.218,61.8,inactive
ULK1 (unc-51 like autophagy activating kinase 1),4,-0.559,81.3,inactive
SDC2 (syndecan 2),1,-0.236,75.6,inactive
SDC2 (syndecan 2),2,-0.154,92,inactive
SDC2 (syndecan 2),3,0.0452,91.6,inactive
NR2C2 (nuclear receptor subfamily 2 group C member 2),1,-0.424,35.9,inactive
NR2C2 (nuclear receptor subfamily 2 group C member 2),2,-0.176,102,inactive
NR2C2 (nuclear receptor subfamily 2 group C member 2),3,-0.227,74.7,inactive
NR2C2 (nuclear receptor subfamily 2 group C member 2),4,-0.168,72.9,inactive
THBD (thrombomodulin),1,-0.426,127,inactive
THBD (thrombomodulin),2,-0.264,90.3,inactive
THBD (thrombomodulin),3,-0.0111,55.8,inactive
THBD (thrombomodulin),4,-0.227,17.9,inactive
OR8B8 (olfactory receptor family 8 subfamily B member 8),1,-0.227,113,inactive
OR8B8 (olfactory receptor family 8 subfamily B member 8),2,-0.547,62.2,inactive
OR8B8 (olfactory receptor family 8 subfamily B member 8),3,0.631,19.9,inactive
OR8B8 (olfactory receptor family 8 subfamily B member 8),4,-0.026,62.5,inactive
A1BG (alpha-1-B glycoprotein),1,-0.393,56.8,inactive
A1BG (alpha-1-B glycoprotein),2,-0.131,8.56,inactive
A1BG (alpha-1-B glycoprotein),3,0.00096,8.98,inactive
INHA (inhibin subunit alpha),1,-0.45,63.6,inactive
INHA (inhibin subunit alpha),2,-0.187,120,inactive
INHA (inhibin subunit alpha),3,0.654,33.6,inactive
INHA (inhibin subunit alpha),4,-0.316,55.7,inactive
PERP (p53 apoptosis effector related to PMP22),1,-0.0536,93.2,inactive
PERP (p53 apoptosis effector related to PMP22),2,-0.12,104,inactive
PERP (p53 apoptosis effector related to PMP22),3,-0.138,104,inactive
PERP (p53 apoptosis effector related to PMP22),4,0.229,70.4,inactive
CES3 (carboxylesterase 3),1,-0.314,65.1,inactive
CES3 (carboxylesterase 3),2,0.148,66.5,inactive
CES3 (carboxylesterase 3),3,-0.414,54.3,inactive
CES3 (carboxylesterase 3),4,0.587,15.4,inactive
"CARS2 (cysteinyl-tRNA synthetase 2, mitochondrial)",1,-0.453,66,inactive
"CARS2 (cysteinyl-tRNA synthetase 2, mitochondrial)",2,0.0206,65.8,inactive
"CARS2 (cysteinyl-tRNA synthetase 2, mitochondrial)",3,-0.191,99.7,inactive
"CARS2 (cysteinyl-tRNA synthetase 2, mitochondrial)",4,-0.118,99.1,inactive
RNF121 (ring finger protein 121),1,-0.142,47,inactive
RNF121 (ring finger protein 121),2,-0.383,65.7,inactive
RNF121 (ring finger protein 121),3,-0.768,47,inactive
RNF121 (ring finger protein 121),4,-0.0268,98.9,inactive
AEBP1 (AE binding protein 1),1,-0.339,62,inactive
AEBP1 (AE binding protein 1),2,-0.0938,86.8,inactive
AEBP1 (AE binding protein 1),3,-0.558,73.5,inactive
EPHA2 (EPH receptor A2),1,-0.319,83.8,inactive
EPHA2 (EPH receptor A2),2,-0.0166,79.8,inactive
EPHA2 (EPH receptor A2),3,-0.00212,80.8,inactive
EPHA2 (EPH receptor A2),4,0.587,37.4,inactive

A stretch of the results above, as a working copy:
gene symbol,reagent no.,log2 vehicle/camptothecin viability,viability with camptothecin (% of control),call
OR8B8 (olfactory receptor family 8 subfamily B member 8),4,-0.026,62.5,inactive
A1BG (alpha-1-B glycoprotein),1,-0.393,56.8,inactive
A1BG (alpha-1-B glycoprotein),2,-0.131,8.56,inactive
A1BG (alpha-1-B glycoprotein),3,0.00096,8.98,inactive
INHA (inhibin subunit alpha),1,-0.45,63.6,inactive
INHA (inhibin subunit alpha),2,-0.187,120,inactive
